PubChem BioAssay AID1224830, NIAID – 2016
Here is an unselected part of about 18,000 deposited reagents. About 2,900 of all reagents (16%) were called active. 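Calls are made per well; low scores hint the gene aids the LPS response, high scores that it dampens it.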 Repeated entries: four replicate wells of each siRNA pool.

Test: 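Genes whose knock-down alters the TNF-alpha reporter response to LPS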 (primary screen)
Cell system: human THP-1 monocytic leukaemia cells, TNF dual-luciferase reporter clone, PMA-differentiated to macrophage-like cells
Reagents: siRNA pool against human genes, 50 nM
Time to read-out: LPS for 4 h, given about 3 days after siRNA transfection
Challenge: bacterial LPS (TLR4 ligand), 10 ng/ml
Measured: 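TNF firefly reporter luminescence divided by renilla, normalised to the plate median, then turned into a robust z-score for each replicate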
Reading the numbers: TNF reporter robust z-score: higher = stronger TNF reporter response to LPS
Rule for the call: 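a well is active when its z-score exceeds 2.8 or falls below -1.5; control wells carry no call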

| gene symbol | TNF reporter robust z-score | outcome |
| --- | --- | --- |
| CD247 | -0.03 | inactive |
| CD247 | 1.44 | inactive |
| CD247 | -0.08 | inactive |
| CD247 | 1.04 | inactive |
| TAS2R14 | 1.19 | inactive |
| TAS2R14 | 6.58 | active |
| TAS2R14 | 1.43 | inactive |
| TAS2R14 | 0.99 | inactive |
| VEZF1 | 0.07 | inactive |
| VEZF1 | 0.92 | inactive |
| VEZF1 | -0.06 | inactive |
| VEZF1 | 2.62 | inactive |
| IK | -1.82 | active |
| IK | -1.29 | inactive |
| IK | -0.98 | inactive |
| IK | -1.44 | inactive |
| UBC | 0.79 | inactive |
| UBC | -0.82 | inactive |
| UBC | -1.57 | active |
| UBC | -1.02 | inactive |
| DHFR | -0.31 | inactive |
| DHFR | 1.7 | inactive |
| DHFR | 1.13 | inactive |
| DHFR | 1.31 | inactive |
| CALML6 | 0.26 | inactive |
| CALML6 | 1 | inactive |
| CALML6 | 1.32 | inactive |
| CALML6 | 0.11 | inactive |
| FGF2 | 0.59 | inactive |
| FGF2 | 1.14 | inactive |
| FGF2 | 1.25 | inactive |
| FGF2 | 0.99 | inactive |
| LY6G6F | 1.85 | inactive |
| LY6G6F | -1.25 | inactive |
| LY6G6F | 0.28 | inactive |
| LY6G6F | -0.05 | inactive |
| OR6A2 | -0.2 | inactive |
| OR6A2 | 0.38 | inactive |
| OR6A2 | 0 | inactive |
| OR6A2 | -0.65 | inactive |
| AGAP1 | -0.36 | inactive |
| AGAP1 | 0.92 | inactive |
| AGAP1 | 0.03 | inactive |
| AGAP1 | 0.72 | inactive |
| SCRN1 | 0.14 | inactive |
| SCRN1 | -1.17 | inactive |
| SCRN1 | 0.15 | inactive |
| SCRN1 | 0.31 | inactive |
| KCTD2 | 0.69 | inactive |
| KCTD2 | 1.14 | inactive |
| KCTD2 | -0.06 | inactive |
| KCTD2 | 1.1 | inactive |
| FAM153B | -0.49 | inactive |
| FAM153B | 0.2 | inactive |
| FAM153B | 1.53 | inactive |
| FAM153B | 1 | inactive |
| WASHC2C | 0.88 | inactive |
| WASHC2C | 1.09 | inactive |
| WASHC2C | -0.71 | inactive |
| WASHC2C | 0.16 | inactive |
| C1R | 0.48 | inactive |
| C1R | 0.14 | inactive |
| C1R | 0.42 | inactive |
| C1R | 0.69 | inactive |
| NIP7 | 0.73 | inactive |
| NIP7 | -0.33 | inactive |
| NIP7 | 0.21 | inactive |
| NIP7 | 0.38 | inactive |
| OR2T11 | -0.98 | inactive |
| OR2T11 | -0.87 | inactive |
| OR2T11 | 0.26 | inactive |
| OR2T11 | -0.33 | inactive |
| TAF1 | -0.94 | inactive |
| TAF1 | -1.34 | inactive |
| TAF1 | -0.86 | inactive |
| TRNAU1AP | 0.45 | inactive |
| TRNAU1AP | 0.8 | inactive |
| TRNAU1AP | -1.59 | active |
| TRNAU1AP | -0.34 | inactive |

Additional entries follow.
| gene symbol | TNF reporter robust z-score | outcome |
| --- | --- | --- |
| FKBP9 | 1.71 | inactive |
| FKBP9 | 2.56 | inactive |
| FKBP9 | 0.47 | inactive |
| FKBP9 | 1.63 | inactive |
| BACH1 | 0.31 | inactive |
| BACH1 | 0.53 | inactive |
| BACH1 | 1.03 | inactive |
| BACH1 | 0.95 | inactive |
| BATF | -0.22 | inactive |
| BATF | -0.2 | inactive |
| BATF | 0.63 | inactive |
| BATF | 0.1 | inactive |
| CAV2 | -0.14 | inactive |
| CAV2 | -0.12 | inactive |
| CAV2 | -1.06 | inactive |
| CAV2 | -0.37 | inactive |
| SLC17A9 | 0.18 | inactive |
| SLC17A9 | 2.28 | inactive |
| SLC17A9 | 0.52 | inactive |
| SLC17A9 | 1.7 | inactive |
| CPA5 | -0.21 | inactive |
| CPA5 | 1.63 | inactive |
| CPA5 | -0.12 | inactive |
| CPA5 | 0.33 | inactive |
| EDIL3 | 0.41 | inactive |
| EDIL3 | 4.43 | active |
| EDIL3 | 1.28 | inactive |
| EDIL3 | 2.87 | active |
| DHRSX | – | inactive |
| DHRSX | 1.25 | inactive |
| DHRSX | 2.04 | inactive |
| DHRSX | 3.01 | active |
| DHRSX | 2.13 | inactive |
| TG | -0.08 | inactive |
| TG | 0.53 | inactive |
| TG | 0.83 | inactive |
| TG | 0.86 | inactive |
| ZNF184 | 2.67 | inactive |
| ZNF184 | 2.13 | inactive |
| ZNF184 | 1.56 | inactive |
| ZNF184 | 1.86 | inactive |
| CD226 | -0.01 | inactive |
| CD226 | 0.01 | inactive |
| CD226 | 0.02 | inactive |
| CD226 | -1.41 | inactive |
| CLK4 | 3.53 | active |
| CLK4 | -0.24 | inactive |
| CLK4 | -0.34 | inactive |
| CLK4 | 0.52 | inactive |
| SHANK3 | 0.9 | inactive |
| SHANK3 | 0.64 | inactive |
| SHANK3 | 2.08 | inactive |
| SHANK3 | 1.88 | inactive |
| RNF25 | -0.14 | inactive |
| RNF25 | 0.83 | inactive |
| RNF25 | -0.61 | inactive |
| RNF25 | 0.67 | inactive |
| PQBP1 | 0.04 | inactive |
| PQBP1 | -0.13 | inactive |
| PQBP1 | -0.35 | inactive |
| PQBP1 | 0.98 | inactive |
